Results from the supplement of paper PMC3334620.
In all, about 33,000 sequences were measured (“E-score (-0.5 to 0.5)”: median about -0.0059, highest 2% from about 0.26 on). The list shows a part of the results.

target: T1, Cin5 (UniProt P40917); test: PBM E-score (8-mer binding enrichment) (E-score (-0.5 to 0.5)); higher = stronger / more preferred TF binding; settings: protein concentration: 100 nM; construct: GST-full length
T1 sequence: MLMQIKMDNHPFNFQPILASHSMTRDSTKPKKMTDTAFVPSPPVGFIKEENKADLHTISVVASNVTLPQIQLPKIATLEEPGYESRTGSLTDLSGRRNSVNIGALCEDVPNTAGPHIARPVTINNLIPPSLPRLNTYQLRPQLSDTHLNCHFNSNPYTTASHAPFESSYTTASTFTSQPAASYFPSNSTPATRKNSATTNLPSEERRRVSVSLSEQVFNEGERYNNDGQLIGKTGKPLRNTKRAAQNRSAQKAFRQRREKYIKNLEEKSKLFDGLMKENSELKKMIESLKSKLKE
Procedure: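 Universal 'all 10-mer' protein binding microarrays (Agilent AMADID 015681) probed with GST-tagged S. cerevisiae TFs (full-length or DBD) made by in vitro transcription/translation (PURExpress), about 100-200 nM. Bound TF was detected with fluorescent anti-GST. Each ungapped 8-mer (which stands for itself and its reverse complement) is scored by the PBM enrichment score (E-score), a modified Wilcoxon-Mann-Whitney statistic from -0.5 to +0.5, computed with the Universal PBM Analysis Suite. Scale: above 0.35 generally sequence-specific binding.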

Sequence | PBM E-score
GGGGCTGA | -0.0283
AGCATTCG | 0.0238
GGATCTTA | 0.0099
ATCATAAC | 0.182
CTAGAAGC | -0.186
CCAGTAGA | -0.0719
ACAGATTA | 0.102
AGGATGCC | -0.192
AGTAGAAC | -0.162
ACCTTAGA | 0.0107
AGAAGCTG | -0.049
CGGAGTCA | 0.0932
AGTATAAC | -0.129
CAGGGCCG | -0.0883
ATTGCTGC | 0.111
CAACCCTC | -0.167
CCCGGCTA | -0.175
GGTTAACA | 0.0603
CTATTAAA | 0.00048
AATTAGTG | 0.188
CCTGGCAC | -0.263
GAATCCCA | 0.13
TCGTTCAA | 0.0414
TATCCCGA | 0.125
CAGGTCTC | -0.254

Sequence | PBM E-score
CGCGCGGC | 0.152
CAAAAAGC | 0.0272
ATCTTAAC | 0.0469
ATTGTCCA | 0.101
AACAATTC | 0.111
AGGTTTAG | -0.121
CATGCGAC | 0.0154
CAAATTTA | 0.135
GAGCACAA | 0.147
ACTCGTCC | -0.13
CCGCCGCC | -0.108
GCAAGCAA | 0.00274
AATTGGAG | -0.04
CTTCGAAG | -0.0184
GATCGTGC | 0.0978
CACCAGAC | -0.0376
GAAAAGCA | -0.0262
AACGGTAG | -0.0598
GCACTGGC | -0.172
ATGCTTAC | 0.265
CCACCGCA | -0.0518
TACATTCA | 0.0805
TACAGACA | 0.0383
TGACGACA | 0.0817
CCCGCGCA | -0.00056

Sequence | PBM E-score
CCTTCCGA | -0.161
GGTTTTAC | -0.286
CCCCTACA | -0.219
ACGCAAAA | 0.0665
AGTTTCAT | 0.218
GCAGCATA | -0.0126
ATCCTCAG | 0.0925
CGCCTCGA | -0.042
AACAAAGC | 0.127
ATCTTGTG | 0.0155
AAGGAAGT | -0.0192
CATAACCG | -0.0972
CCCCGGCC | -0.355
ACGCGAGG | 0.0224
AAGCGGTA | 0.0319
CCTCTATC | -0.152
AGTGTCAT | 0.138
AAGATAAA | 0.232
CTCATCAG | 0.166
GCTTCACC | -0.2
AGGACCGA | -0.0535
CAGCGTGA | -0.0728
AGGATTTA | 0.106
ATGTTTAG | 0.216
TCTCCCAA | -0.0907

Sequence | PBM E-score
GACGAAAC | -0.0257
ACATTCCC | -0.0239
AGTGTGGA | -0.0179
ATTCGACG | 0.119
ATACCCAC | 0.11
TATTCAAA | 0.0423
AGGTTTGC | 0.0243
ACTATGGC | 0.0781
GGTGCGCA | 0.0448
ACAGATGT | 0.0696
GCGCGCGA | 0.104
ACTTGGAG | -0.0532
AGTCGACT | 0.254
CGTGTAAG | 0.129
TATGACCA | 0.01
GATTCCAA | -0.0337
ATACTATC | 0.102
GCGTGCCA | -0.15
CCCAGGAC | -0.289
GAAGTGTA | -0.115
CCTCCGTC | -0.264
AATACTAC | 0.243
AGTAGACG | 0.0975
ACGCTATC | 0.146
GTAAGGAC | -0.0448

No new results follow: entries from further up.
Sequence | PBM E-score
CCCCGGCC | -0.355
ACGCGAGG | 0.0224
AAGCGGTA | 0.0319
CCTCTATC | -0.152
AGTGTCAT | 0.138
AAGATAAA | 0.232
CTCATCAG | 0.166
GCTTCACC | -0.2
AGGACCGA | -0.0535
CAGCGTGA | -0.0728
AGGATTTA | 0.106
ATGTTTAG | 0.216
TCTCCCAA | -0.0907
GACGAAAC | -0.0257
ACATTCCC | -0.0239
AGTGTGGA | -0.0179
ATTCGACG | 0.119
ATACCCAC | 0.11
TATTCAAA | 0.0423
AGGTTTGC | 0.0243
ACTATGGC | 0.0781
GGTGCGCA | 0.0448
ACAGATGT | 0.0696
GCGCGCGA | 0.104
ACTTGGAG | -0.0532
AGTCGACT | 0.254
CGTGTAAG | 0.129
TATGACCA | 0.01
GATTCCAA | -0.0337
ATACTATC | 0.102
GCGTGCCA | -0.15
CCCAGGAC | -0.289
GAAGTGTA | -0.115
CCTCCGTC | -0.264
AATACTAC | 0.243
AGTAGACG | 0.0975
ACGCTATC | 0.146
GTAAGGAC | -0.0448

Following part

Sequence | PBM E-score
AAGAGCTT | 0.0273
GTAACGGA | 0.252
GTTTAAAC | 0.0954
ACAGGACG | -0.133
AACTGGAG | -0.0851
AGGTCTGC | -0.312
AACGTATC | 0.0199
CCGGTACC | -0.209
ATAGAAAC | 0.0523
CCAGCAGG | -0.321
GTGCGGTA | 0.0222
CTTACTCA | 0.127
AGTAGAGC | -0.152
AGCTCAAT | 0.00291
ATAATGAC | -0.0131
TGTCCGAA | -0.0009
AGGTTGAG | -0.229
AACTTCGC | 0.0132
CTGCGCCA | 0.00777
ACAGGAGC | -0.0257
AACCTCTA | 0.0194
CTGTTTTC | -0.0122
CAGTCGAC | 0.125
ATAGACCC | 0.0556
AGTCTGTA | -0.186

Sequence | PBM E-score
AGAGTGGC | -0.0896
GGCTCCAA | -0.169
GATGAAGA | -0.0683
GAGCCCGC | -0.19
ATCGCATC | -0.0686
CCAAATCA | 0.135
GGGAACTA | 0.0248
GGACGTAA | -0.00185
CACGGAGC | -0.00255
ACCCCCGA | -0.195
GCATACCA | -0.0865
ACCCATGA | -0.0761
ACGGATGC | 0.0393
TGGATCAA | 0.0341
CTTCTGTC | 0.0303
CTCTGACC | -0.166
ACATGTAC | 0.143
CGCATTTC | 0.202
CGGGAAAG | -0.0639
ACGGTCAT | 0.0422
ATAACGCA | 0.0289
TAACCACA | 0.136
GTAGGTAA | 0.129
TGTAAACA | 0.0928
CATCGCTA | 0.0738

Sequence | PBM E-score
CCGGAAAG | 0.0289
GGCTAACC | -0.325
GCTCGTCA | -0.254
AAACTAAA | 0.199
ACAGCTAC | 0.00616
GAAGAAAC | 0.12
CTAATGTA | 0.0886
CGACACGC | -0.155
ATCGATCG | 0.128
ATGATGGA | 0.0878
AATAGCTC | -0.0423
CTTATGGA | 0.0311
ATCAGCGA | 0.0259
GCCCCTCA | -0.12
GGTCATAC | -0.0465
AACGTGAA | -0.0825
CCAATAAC | 0.161
CTTACTGC | 0.0841
CATACCCC | -0.0352
GCGACGTA | 0.0154
ACCGCGAA | 0.065
GTTATCAA | 0.0472
